Results taken from patent US20260000632A1, “STRUCTURALLY MODIFIED FATTY ACIDS FOR IMPROVING GLYCEMIC CONTROL AND TREATING INFLAMMATORY BOWEL DISEASE” (Northsea Therapeutics B.V., priority 2018, published 2026).

Test system: ob/ob mice
Experiment: Chronic treatment in ob/ob mice: basal parameters after 4 weeks
Assay type: in vivo, mouse
Settings: 4 weeks diet admix, Compound A 135, fenofibrate 100, pioglitazone 30 mg/kg bw/d, mean ± SEM
Experimental: Mice were fed a standard low-fat (7% w/w fat) diet. After 4-weeks, the mice were fasted for 4 hours and the effects of Compound A were assessed. Assessment of the effects of Compound A included basal levels of blood glucose, plasma insulin, HbA1c levels, and homeostatic model assessment of insulin resistance (HOMA-IR). HOMA-IR is an assessment of insulin resistance and is calculated by the following formula: fasting insulin (micro U/L)×fasting glucose […]/22.5.

## CC/C=C\C/C=C\C/C=C\C/C=C\C/C=C\CCCCOC(CC)C(=O)O (centres unmarked) [Compound A, 2-(((5Z,8Z,11Z,14Z,17Z)-icosa-5,8,11,14,17-pentaen-1-yl)oxy)butanoic acid]
4 h fast, control 54.5 ± 1.5
  Body weight: 55.0 ± 1.1 g
Control 6.8 ± 0.5
  Food intake: 6.1 ± 0.3 g/m/d
